PubChem BioAssay AID1259259, Sanger Institute, 2017

Aim: 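Synthetic lethal kinase partners of anchor drugs in colorectal cancer cells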 (primary screen)
Cells: SW1463 human colorectal cancer cells
Knock-down reagent: siRNA pool against human genes
Conditions: DMSO vehicle, or one anchor drug: BYL719 at 1 µM, cetuximab at 5 µg/ml, or trametinib at 10 nM
Measurement: 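Viability relative to control pool 2 (non-targeting) averaged over replicates, robust z-score for knock-down with no drug, and for each anchor drug the mean synergy score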
Scale: robust z-score, knock-down alone: higher = more viable cells after knock-down; viability, knock-down alone: higher = more viable cells; synergy score with BYL719 and synergy score with cetuximab and synergy score with trametinib: higher = stronger synergy (synthetic lethal) with drug
Hit rule: 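a robust z-score under -3 for knock-down with no drug marks the gene as essential, meaning viability loss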
Meaning of the calls: active = essential: viability loss from knock-down alone; inactive = no change from knock-down alone
In all, the deposit lists 794 reagents; below is a part drawn at random. 9 of all reagents (1.1%) count as active. 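Calls rest on knock-down alone, not drug synergy; viability values seem capped at 1.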 Reagent sequences are not shown. Not stated in the record: the amount of reagent, the time to read-out.

Target gene	robust z-score, knock-down alone	viability, knock-down alone (fraction of control)	synergy score with BYL719	synergy score with cetuximab	synergy score with trametinib	activity call
TAB1 (GeneID 10454)	1.13	1	0	0.0851	-0.0326	inactive
TRIB2 (GeneID 28951)	-0.876	0.871	-0.0294	-0.0677	-0.123	inactive
PRKY (GeneID 5616)	1.13	1	0.0633	0.0179	-0.0244	inactive
PRKDC (GeneID 5591)	-0.895	0.87	-0.0292	0.0131	-0.0355	inactive
CHUK (GeneID 1147)	1.13	1	0	0.0179	0.144	inactive
PIM1 (GeneID 5292)	-0.159	0.917	-0.0826	-0.108	-0.112	inactive
FGFRL1 (GeneID 53834)	0.416	0.954	0.149	0.101	0.0985	inactive
IPMK (GeneID 253430)	-0.404	0.902	-0.0983	-0.0579	-0.128	inactive
MAP2K4 (GeneID 6416)	1.13	1	0	0.271	0.208	inactive
TAOK3 (GeneID 51347)	-0.136	0.919	0.126	0.183	-0.0618	inactive
MYLK2 (GeneID 85366)	-2.01	0.799	0.06	0.15	0.163	inactive
MAP3K7 (GeneID 6885)	1.13	1	0.058	0.0631	0.196	inactive
RIOK1 (GeneID 83732)	1.13	1	0.0891	-0.0272	0.14	inactive
BCR (GeneID 613)	-1.4	0.838	-0.0979	-0.169	0.0391	inactive
NEK8 (GeneID 284086)	0.137	0.936	-0.0382	0.0415	0.126	inactive
CDK20 (GeneID 23552)	-1.18	0.852	-0.0458	-0.0925	-0.0405	inactive
TNNI3K (GeneID 51086)	0.64	0.969	-0.0312	0.19	-0.0629	inactive
SPEG (GeneID 10290)	1.13	1	0	-0.0272	-0.0326	inactive
DGKG (GeneID 1608)	1.13	1	0.00886	0.0617	-0.0326	inactive
UCK2 (GeneID 7371)	1.13	1	0.071	0.0203	0.0298	inactive
STK39 (GeneID 27347)	0.874	0.984	0.0719	0.0177	0.175	inactive
PRPS1L1 (GeneID 221823)	0.632	0.968	-0.0318	0.0436	0.131	inactive
AAK1 (GeneID 22848)	-0.469	0.898	0.0567	0.0388	0.00988	inactive
ACSL6 (GeneID 23305)	1.05	0.995	0.162	0.0903	0.212	inactive
EPHB6 (GeneID 2051)	-0.489	0.896	-0.0352	-0.0703	0.0475	inactive
MASTL (GeneID 84930)	-0.633	0.887	0.00576	0.155	-0.0936	inactive
MAPK13 (GeneID 5603)	0.432	0.955	-0.0107	0.168	0.199	inactive
MAK (GeneID 4117)	0.249	0.944	0.036	-0.082	-0.0417	inactive
CSNK1G3 (GeneID 1456)	0.281	0.946	-0.0305	-0.0801	0.0459	inactive
CDK11A (GeneID 728642)	-0.328	0.907	-0.0305	0.114	0.0596	inactive
PFKFB1 (GeneID 5207)	-0.229	0.913	-0.0019	0.242	0.0302	inactive
SGK2 (GeneID 10110)	-0.864	0.872	-0.0225	0.254	-0.0346	inactive
CLK2 (GeneID 1196)	-1.23	0.849	-0.125	-0.0173	0.0733	inactive
NEK6 (GeneID 10783)	1.13	1	0	-0.0159	-0.0326	inactive

Records listed so far whose target name begins with N or n (2):
Target gene	robust z-score, knock-down alone	viability, knock-down alone (fraction of control)	synergy score with BYL719	synergy score with cetuximab	synergy score with trametinib	activity call
NEK8 (GeneID 284086)	0.137	0.936	-0.0382	0.0415	0.126	inactive
NEK6 (GeneID 10783)	1.13	1	0	-0.0159	-0.0326	inactive
